In experiment [1] the target is T1, Flag-GSDMD, wild type (human) (UniProt P57764).
T1 sequence: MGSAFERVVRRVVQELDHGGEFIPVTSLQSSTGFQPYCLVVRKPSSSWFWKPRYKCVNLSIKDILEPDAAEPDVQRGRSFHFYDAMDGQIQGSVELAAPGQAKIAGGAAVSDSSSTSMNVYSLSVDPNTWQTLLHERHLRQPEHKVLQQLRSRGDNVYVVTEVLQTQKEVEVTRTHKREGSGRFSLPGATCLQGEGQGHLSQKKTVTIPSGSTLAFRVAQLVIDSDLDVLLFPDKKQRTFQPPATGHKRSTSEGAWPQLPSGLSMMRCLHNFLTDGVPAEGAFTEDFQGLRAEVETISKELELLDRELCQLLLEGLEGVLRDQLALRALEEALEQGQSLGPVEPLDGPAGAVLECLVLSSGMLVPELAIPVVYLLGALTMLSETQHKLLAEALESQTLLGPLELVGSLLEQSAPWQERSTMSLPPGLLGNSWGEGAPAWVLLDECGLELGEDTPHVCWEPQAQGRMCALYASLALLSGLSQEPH
Briefly: co-IP; HEK293T cells transfected with tagged proteins; lysates with anti-Flag or anti-Myc beads at 4 °C overnight, washed with low-salt lysis buffer (50 mM HEPES pH 8.0, 150 mM NaCl, 1% Triton X-100); Fig. 3M to O after Baf A1 (0.2 μM, 6 h).

The chains behind the UniProt entries cited, without tags or fusion partners. Where a name states a change or a piece, a line headed by the entry shows the natural chain unless it says otherwise.
UniProt Q96CV9: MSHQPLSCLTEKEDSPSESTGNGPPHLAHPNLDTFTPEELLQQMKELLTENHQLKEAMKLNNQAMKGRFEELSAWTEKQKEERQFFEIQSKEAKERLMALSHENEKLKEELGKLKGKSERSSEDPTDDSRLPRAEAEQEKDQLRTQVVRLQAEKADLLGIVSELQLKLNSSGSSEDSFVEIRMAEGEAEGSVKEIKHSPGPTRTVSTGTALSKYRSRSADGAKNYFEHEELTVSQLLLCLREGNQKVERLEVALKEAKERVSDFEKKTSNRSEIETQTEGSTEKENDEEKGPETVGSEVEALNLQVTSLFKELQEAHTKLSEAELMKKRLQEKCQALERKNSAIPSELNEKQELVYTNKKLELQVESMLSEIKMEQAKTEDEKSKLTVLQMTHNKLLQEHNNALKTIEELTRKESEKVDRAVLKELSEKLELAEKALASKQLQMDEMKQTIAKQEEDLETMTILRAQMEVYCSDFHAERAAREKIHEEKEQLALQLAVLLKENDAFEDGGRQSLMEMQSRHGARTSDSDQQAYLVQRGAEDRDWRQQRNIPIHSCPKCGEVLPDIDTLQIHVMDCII
UniProt P29466: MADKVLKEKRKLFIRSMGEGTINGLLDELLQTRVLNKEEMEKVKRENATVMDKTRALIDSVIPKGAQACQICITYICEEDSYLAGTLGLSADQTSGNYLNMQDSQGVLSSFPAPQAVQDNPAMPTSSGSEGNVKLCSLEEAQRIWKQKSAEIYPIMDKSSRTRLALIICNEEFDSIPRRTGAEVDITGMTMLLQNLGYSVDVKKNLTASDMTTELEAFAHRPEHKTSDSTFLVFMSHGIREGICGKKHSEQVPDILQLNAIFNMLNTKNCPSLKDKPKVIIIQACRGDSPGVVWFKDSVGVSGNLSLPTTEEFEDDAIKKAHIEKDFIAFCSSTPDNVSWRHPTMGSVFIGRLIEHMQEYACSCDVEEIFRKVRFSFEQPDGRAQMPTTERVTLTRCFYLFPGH

Experiment [2] deals with T1, Flag-GSDMD, wild type (human). Put plainly: co-IP; BECN1-KO HEK293T cells transfected with Myc-CASP1 or Myc-CASP4 and Flag-GSDMD WT or K168R for 24 h; level of co-precipitated Myc-CASP1/4 quantified.
Another experiment addresses T2, Flag-GSDMD K168R (human) (UniProt P57764).
T2 sequence: T1 sequence with K168R
The experiment is described as above.

Experiment [3] deals with T3, GSDMD, wild type, as used in the co-precipitations of the supplementary figures (S1D, S2Q, S5C, S6D, S6E) (human) (UniProt P57764).
T3 sequence: T1 sequence
Put plainly: co-IP; co-precipitations of the supplementary figures (S1D, S2Q, S5A to C, S6D and E); legends not shown; HEK293T cells where the text tells; S2Q with control or USP18 knock-down, S5C with overexpressed USP18 or USP18 C64A.

The target of experiment [4] is T4, GSDMD, endogenous in THP-1-derived macrophages (human (endogenous in THP-1)) (UniProt P57764).
T4 sequence: T1 sequence
Briefly: co-IP; endogenous proteins in THP-1-derived macrophages (mock, LPS, LPS plus ATP, poly(dA:dT) or flagellin; wild type, USP18-KD or USP18-KO); antibodies plus Protein A/G beads at 4 °C overnight.

Substitutions are numbered along the chain they refer to. These are yes or no findings as the source states them, for the method shown. Binding seen in cells or lysates may run through a third protein. Some entries that bind do so weakly or less than the wild type. For some of these results: Sequences can lack the tags named with a protein.

This is an account of results in paper PMC11109516.

HA-OPTN (from UniProt Q96CV9 1-577): in experiment [1], the binding result is listed as “binds”.

For HA-p62 (from UniProt Q13501 1-440), the binding entry in experiment [1] was “binds”.

On to “Myc-caspase-1 (from UniProt P29466 1-404) (enzyme)”, for which the binding result (in experiment [2]; with Flag-GSDMD K168R (human)) was “binds” each time.

For the substance “OPTN, as used in Fig. S2Q (from UniProt Q96CV9 1-577)”, the binding result in experiment [3] was “binds”.

For “OPTN, endogenous in THP-1-derived macrophages (from UniProt Q96CV9 1-577)”, the binding entry in experiment [4] was “binds”.

On to “p62, endogenous in THP-1-derived macrophages (from UniProt Q13501 1-440)”, for which the binding result in experiment [4] is recorded as “binds”.
